Laboratory results as given in US8435553B2, “Elastin stabilization of connective tissue” (Clemson University Research Foundation (CURF), priority 2005, dated 2013).
At least one structure is not confirmed: it was looked up by name or label, or the drawing left a doubt.

Tested on: rat abdominal aorta
Experiment: CaCl2 chemical injury aneurysm model on rat abdominal aorta
Type: in vivo, Sprague-Dawley rats
Details: treated aorta 28 days post-injury
Excerpt: In vivo use of the disclosed agents was examined. The aneurysm model used was based on the perivascular application of a high concentration calcium chloride (CaCl2) solution, a method originally used to induce aneurysms in rabbit carotid arteries (see, Gertz SD, Kurgan A, Eisenberg D. J Clin Invest 1988;81(3):649-656.) and has more recently been used on abdominal aorta of rodents. (See, e.g., Freestone T., et al., Arterioscler Thromb Vasc Biol 1995;15(8):1145-1151. Freestone T., et al., Arterioscler Thromb Vasc Biol 1997;17(1):10-17. Tambiah J., et al. Br J Surg 2001;88(7):935-940.) This model results in a localized mild insult to the arterial tissue. In most studies, a significant increase in aortic diameter (indicative of aneurysm formation) was observed after 3 to 6 weeks post-injury. For this example, the CaCl2-based chemical injury was performed on rat aorta.
Adult male Sprague-Dawley rats were placed under general anesthesia (2% to 3% isoflurane), allowing for a midline incision along the abdomen in order to expose the infrarenal abdominal aorta. Once exposed, the abdominal aorta was treated with 0.03% PGG solution in saline for 15 minutes using a strip (1.5 cm×0.5 cm) of presoaked 8-ply sterile cotton gauze. […]
Following superficial examination of the aortic segments, the segments were analyzed via desmosine analysis for elastin content. […]

## O=C(OC[C@H]1O[C@@H](OC(=O)c2cc(O)c(O)c(O)c2)[C@H](OC(=O)c2cc(O)c(O)c(O)c2)[C@@H](OC(=O)c2cc(O)c(O)c(O)c2)[C@@H]1OC(=O)c1cc(O)c(O)c(O)c1)c1cc(O)c(O)c(O)c1 [PGG, pentagalloylglucose]
  elastin by Verhoeff van Giesson staining: retained elastin
